Earlier results on one compound are cited in PMC10049421, “Anticancer Activity of Sunitinib Analogues in Human Pancreatic Cancer Cell Cultures under Normoxia and Hypoxia” (International Journal of Molecular Sciences, 2023).

Molecules are shown by their SMILES.

The subject of one data set is MIA PaCa-2 cell line. The note with it: cited from earlier work.
The test system of another data set is AsPC-1 cell line. The settings on record: cited from earlier work.

Regarding `Cc1ccc(NC(=O)c2ccc(CN3CCN(C)CC3)cc2)cc1Nc1nccc(-c2cccnc2)n1` [imatinib], the results for the EC50 in the data set on MIA PaCa-2 cell line and with AsPC-1 cell line were 9 µM and 20 µM, respectively.
